This assay addresses biotinylated huCD137-Fc (human CD137 Fc fusion) (human) (UniProt Q07011). The assay can be described thus: SPR, biotinylated huCD137-Fc captured, 500 nM huCD137L-His applied.

Chains of the proteins cited; added tags and fusions are not shown. Residues count along the entry.
UniProt Q07011, residues 24-186: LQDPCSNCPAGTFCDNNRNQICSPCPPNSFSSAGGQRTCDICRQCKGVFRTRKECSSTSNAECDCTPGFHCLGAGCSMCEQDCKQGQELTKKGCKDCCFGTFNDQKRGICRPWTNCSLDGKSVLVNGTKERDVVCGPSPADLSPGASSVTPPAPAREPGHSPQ
UniProt P41273, residues 71-254: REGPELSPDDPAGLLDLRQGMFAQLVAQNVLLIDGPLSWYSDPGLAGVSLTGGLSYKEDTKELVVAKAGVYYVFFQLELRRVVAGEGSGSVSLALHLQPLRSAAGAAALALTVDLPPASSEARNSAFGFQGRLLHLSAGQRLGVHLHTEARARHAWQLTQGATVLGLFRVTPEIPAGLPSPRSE

No constants are given. Whether binding was seen depends on the method and setting. Some entries that bind do so weakly or less than the wild type.

For the substance “huCD137L-His (human CD137L with a C-terminal His tag) (from UniProt P41273 71-254) (ligand)”, the binding entry is “binds”.

These data come from patent US20210363257A1.
